From US20250346616A1 (DIZAL (JIANGSU) PHARMACEUTICAL CO., LTD., priority 2022, published 2025)

Tested on: HepG2 cells
Test: Cell-based phospholipidosis assay (LipidTOX Red)
Conditions: Homo sapiens, 24 h, LipidTOX Red dye
Description: HepG2 cells were dispensed into Collagen I-coated 96-well black wall/clear bottom assay plates at 5000 cells/90 μL/well.
The assay plates were incubated at 37° C. for 4 h to allow the cells to attach to wells, followed by addition of 30 μL of 1:250 LipidTOX Red dye (1:1000 final, then 120 nL Test compounds were added for the final concentration (50 uM start, 3-fold dilution, 8 doses, in duplicate). The 20 uM of Amiodarone and DMSO (0.1% final) were used for maximum and minimum control.
The assay plates were then incubated at 37° C. for 24 h, […] of 8% paraformaldehyde (4% final) fixative solution containing 8 μg/ml Hoechst 33342 (4 ug/mL final) in DPBS was added to each well. After incubation at room temperature for 25 min, the assay plates were washed with DPBS. The assay plates were sealed and stored at 4° C. before imaging.
The fluorescence intensities (595 nm excitation, 615 nm emission for LipidTOX Red; 352 nm excitation, 461 nm emission for Hoechst 33342) were measured using an High Content Screening System (Operetta, PerkinElmer) with a 10×Fluor objective. Images were acquired for 4 fields in each well and analyzed with the software. Average intensities were subjected to Prism and EC50 were calculated. The present disclosure provided compounds that are potent ROCK1 and ROCK2 inhibitors without liability of inducing phospholipidosis.

Compound `CCCCc1oc2ccccc2c1C(=O)c1cc(I)c(OCCN(CC)CC)c(I)c1` [Amiodarone, reference compound] has an EC50 of 1.37 µM.
